{"source": "patent US20220202841A1", "about": "“DERMATOLOGICAL FORMULATIONS FOR TREATMENT OF DERMATITIS” (priority 2020, published 2022)", "tested_on": "moderate to severe papular pustular rosacea with perioral dermatitis", "test": "Treatment of a subject with the formulation, clinical examination after 1 month", "assay_type": "in vivo, human", "settings": "same subject, treatment history before the formulation, as reported at first visit", "source_text": "The lesions consisted of papules and pimples, was severe in severity, and had been present for months. […] The subject was having a bad “acne” flare up, and stated that their face was itchy and red. The subject had been treated for “acne” for a long time.\nThe subject was diagnosed with moderate to severe papular pustular rosacea with perioral dermatitis.\nThe subject was given the formulation of Example 1, and the subject administered it twice daily (AM and PM) and was seen again 1 month later, at which time their condition had improved. The subject's condition at this later examination was recorded in the images in FIGS. 2A to 2C.", "note": "At least one compound was matched to its structure with a doubt left.", "data": [{"smiles": "C[C@H]1c2cccc(O)c2C(=O)C2=C(O)[C@]3(O)C(=O)C(C(N)=O)=C(O)[C@@H](N(C)C)[C@@H]3[C@@H](O)[C@@H]21", "note": "[Doxycycline]", "values": [{"measurement": "improvement of \"acne\" lesions with previously tried treatment", "result": "no improvement"}]}]}
